The supplement of paper PMC10849652
The other results are listed elsewhere or left out. Residues, ends and D or L forms follow the SMILES beside them. *: point of attachment. Cbz = O=C(OCc1ccccc1)*

Sequences of proteins named here, by UniProt entry; tags and fusion partners are left off. A change or cut given only in a name is not applied to a line headed by its entry.
UniProt Q5JPE7: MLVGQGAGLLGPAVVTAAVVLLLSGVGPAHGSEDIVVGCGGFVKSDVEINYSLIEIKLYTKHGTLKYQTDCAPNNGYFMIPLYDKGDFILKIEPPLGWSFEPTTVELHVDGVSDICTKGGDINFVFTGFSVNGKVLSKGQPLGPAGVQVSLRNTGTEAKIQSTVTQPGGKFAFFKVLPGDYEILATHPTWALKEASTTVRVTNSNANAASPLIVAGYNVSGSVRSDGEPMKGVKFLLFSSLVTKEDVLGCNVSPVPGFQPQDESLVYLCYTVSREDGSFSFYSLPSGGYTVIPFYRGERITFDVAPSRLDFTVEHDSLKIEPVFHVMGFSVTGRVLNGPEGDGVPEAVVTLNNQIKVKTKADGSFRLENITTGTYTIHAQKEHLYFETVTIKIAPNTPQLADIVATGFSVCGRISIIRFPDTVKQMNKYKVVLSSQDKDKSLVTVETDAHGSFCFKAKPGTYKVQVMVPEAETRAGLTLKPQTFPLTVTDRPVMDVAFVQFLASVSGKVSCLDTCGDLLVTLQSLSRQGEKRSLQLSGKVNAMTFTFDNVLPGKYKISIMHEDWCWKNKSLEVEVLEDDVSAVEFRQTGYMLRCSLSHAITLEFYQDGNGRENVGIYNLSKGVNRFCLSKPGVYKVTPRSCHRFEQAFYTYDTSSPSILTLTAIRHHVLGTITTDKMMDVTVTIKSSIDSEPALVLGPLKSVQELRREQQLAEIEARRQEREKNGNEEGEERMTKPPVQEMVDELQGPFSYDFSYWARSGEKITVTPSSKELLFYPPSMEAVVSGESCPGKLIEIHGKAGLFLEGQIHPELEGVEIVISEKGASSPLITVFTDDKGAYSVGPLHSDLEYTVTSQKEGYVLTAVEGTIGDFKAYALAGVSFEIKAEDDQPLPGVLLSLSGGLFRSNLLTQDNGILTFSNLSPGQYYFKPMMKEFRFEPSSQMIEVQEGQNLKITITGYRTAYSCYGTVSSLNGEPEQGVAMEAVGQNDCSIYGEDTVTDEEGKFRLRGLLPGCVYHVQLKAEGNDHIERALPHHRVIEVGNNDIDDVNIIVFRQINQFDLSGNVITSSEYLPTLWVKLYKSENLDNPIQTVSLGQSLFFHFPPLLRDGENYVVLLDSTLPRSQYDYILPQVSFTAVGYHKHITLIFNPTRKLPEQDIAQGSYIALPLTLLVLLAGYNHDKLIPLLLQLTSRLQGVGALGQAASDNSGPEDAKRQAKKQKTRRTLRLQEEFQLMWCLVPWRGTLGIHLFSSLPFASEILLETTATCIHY
UniProt P06748, whole entry, looked up: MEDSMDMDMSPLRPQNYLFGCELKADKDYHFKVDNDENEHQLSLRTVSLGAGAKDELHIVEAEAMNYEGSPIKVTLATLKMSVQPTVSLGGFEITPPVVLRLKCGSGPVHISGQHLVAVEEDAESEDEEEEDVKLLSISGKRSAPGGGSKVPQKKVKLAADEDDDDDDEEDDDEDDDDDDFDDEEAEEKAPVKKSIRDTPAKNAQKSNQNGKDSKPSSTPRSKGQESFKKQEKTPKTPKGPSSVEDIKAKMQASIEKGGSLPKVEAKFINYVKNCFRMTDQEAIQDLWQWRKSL
UniProt Q9Y697: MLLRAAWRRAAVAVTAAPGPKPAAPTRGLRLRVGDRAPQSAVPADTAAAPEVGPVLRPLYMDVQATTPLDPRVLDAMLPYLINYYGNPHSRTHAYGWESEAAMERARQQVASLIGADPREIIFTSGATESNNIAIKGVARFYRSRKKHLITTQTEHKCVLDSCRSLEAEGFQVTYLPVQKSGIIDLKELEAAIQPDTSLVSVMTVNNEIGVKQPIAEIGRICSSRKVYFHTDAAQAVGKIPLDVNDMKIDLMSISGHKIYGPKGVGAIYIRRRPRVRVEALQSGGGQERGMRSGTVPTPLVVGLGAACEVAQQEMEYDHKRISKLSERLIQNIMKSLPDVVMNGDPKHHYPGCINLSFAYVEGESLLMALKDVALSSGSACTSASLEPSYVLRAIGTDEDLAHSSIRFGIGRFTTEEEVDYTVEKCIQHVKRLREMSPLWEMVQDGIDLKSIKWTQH
UniProt O75414: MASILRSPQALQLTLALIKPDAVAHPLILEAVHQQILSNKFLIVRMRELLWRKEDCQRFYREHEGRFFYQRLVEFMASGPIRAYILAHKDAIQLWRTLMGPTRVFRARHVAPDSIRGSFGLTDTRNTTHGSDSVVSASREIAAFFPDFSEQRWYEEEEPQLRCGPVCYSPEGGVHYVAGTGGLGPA
UniProt Q9GZT8: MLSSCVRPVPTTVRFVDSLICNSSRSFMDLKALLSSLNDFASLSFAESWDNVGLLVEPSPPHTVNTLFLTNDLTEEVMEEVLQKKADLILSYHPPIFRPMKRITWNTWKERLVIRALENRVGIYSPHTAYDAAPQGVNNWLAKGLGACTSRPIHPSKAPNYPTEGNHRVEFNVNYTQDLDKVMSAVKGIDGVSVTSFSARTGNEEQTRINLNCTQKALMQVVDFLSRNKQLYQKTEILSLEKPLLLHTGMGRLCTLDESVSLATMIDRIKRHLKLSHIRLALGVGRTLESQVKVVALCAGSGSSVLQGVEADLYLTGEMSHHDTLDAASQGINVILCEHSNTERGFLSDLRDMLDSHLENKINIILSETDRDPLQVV
UniProt Q15738: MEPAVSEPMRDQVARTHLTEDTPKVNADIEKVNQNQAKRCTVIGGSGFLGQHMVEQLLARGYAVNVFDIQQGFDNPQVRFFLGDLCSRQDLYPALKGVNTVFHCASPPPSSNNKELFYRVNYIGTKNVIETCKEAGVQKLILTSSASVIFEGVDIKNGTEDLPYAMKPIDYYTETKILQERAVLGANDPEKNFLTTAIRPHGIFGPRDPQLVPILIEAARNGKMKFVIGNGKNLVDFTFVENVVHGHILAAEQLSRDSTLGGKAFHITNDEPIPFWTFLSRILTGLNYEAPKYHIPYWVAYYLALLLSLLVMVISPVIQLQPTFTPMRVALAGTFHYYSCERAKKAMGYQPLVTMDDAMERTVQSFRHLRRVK
UniProt Q9Y5B8, whole entry, looked up: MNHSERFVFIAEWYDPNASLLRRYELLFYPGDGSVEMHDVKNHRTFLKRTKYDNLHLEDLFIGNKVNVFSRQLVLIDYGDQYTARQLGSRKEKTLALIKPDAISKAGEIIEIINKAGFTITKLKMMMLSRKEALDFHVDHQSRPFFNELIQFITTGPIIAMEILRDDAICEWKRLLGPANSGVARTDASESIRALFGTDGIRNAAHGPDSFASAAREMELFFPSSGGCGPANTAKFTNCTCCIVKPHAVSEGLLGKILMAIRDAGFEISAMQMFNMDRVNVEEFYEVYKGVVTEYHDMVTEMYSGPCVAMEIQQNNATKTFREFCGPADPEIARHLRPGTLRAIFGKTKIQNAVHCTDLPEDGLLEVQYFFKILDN
UniProt Q16656: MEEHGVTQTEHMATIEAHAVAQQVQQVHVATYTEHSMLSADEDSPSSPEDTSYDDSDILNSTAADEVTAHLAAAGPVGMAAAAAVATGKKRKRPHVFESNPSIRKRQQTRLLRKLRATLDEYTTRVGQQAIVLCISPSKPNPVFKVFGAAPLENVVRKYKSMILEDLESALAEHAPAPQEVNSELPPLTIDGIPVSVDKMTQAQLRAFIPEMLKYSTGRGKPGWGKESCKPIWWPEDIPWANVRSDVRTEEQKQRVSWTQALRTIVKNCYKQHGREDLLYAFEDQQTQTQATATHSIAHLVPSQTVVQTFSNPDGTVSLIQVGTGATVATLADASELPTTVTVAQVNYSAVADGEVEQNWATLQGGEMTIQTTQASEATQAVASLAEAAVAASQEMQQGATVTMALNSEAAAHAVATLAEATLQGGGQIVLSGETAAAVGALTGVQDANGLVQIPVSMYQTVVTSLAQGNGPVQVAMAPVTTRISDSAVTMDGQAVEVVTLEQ
UniProt Q9UMY1: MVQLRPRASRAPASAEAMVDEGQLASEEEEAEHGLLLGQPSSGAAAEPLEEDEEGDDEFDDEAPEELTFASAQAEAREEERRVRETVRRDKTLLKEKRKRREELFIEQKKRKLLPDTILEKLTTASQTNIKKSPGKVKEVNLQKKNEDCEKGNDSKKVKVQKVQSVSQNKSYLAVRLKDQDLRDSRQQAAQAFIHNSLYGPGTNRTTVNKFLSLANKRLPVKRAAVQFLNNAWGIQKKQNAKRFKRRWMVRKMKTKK
UniProt Q7RTR2: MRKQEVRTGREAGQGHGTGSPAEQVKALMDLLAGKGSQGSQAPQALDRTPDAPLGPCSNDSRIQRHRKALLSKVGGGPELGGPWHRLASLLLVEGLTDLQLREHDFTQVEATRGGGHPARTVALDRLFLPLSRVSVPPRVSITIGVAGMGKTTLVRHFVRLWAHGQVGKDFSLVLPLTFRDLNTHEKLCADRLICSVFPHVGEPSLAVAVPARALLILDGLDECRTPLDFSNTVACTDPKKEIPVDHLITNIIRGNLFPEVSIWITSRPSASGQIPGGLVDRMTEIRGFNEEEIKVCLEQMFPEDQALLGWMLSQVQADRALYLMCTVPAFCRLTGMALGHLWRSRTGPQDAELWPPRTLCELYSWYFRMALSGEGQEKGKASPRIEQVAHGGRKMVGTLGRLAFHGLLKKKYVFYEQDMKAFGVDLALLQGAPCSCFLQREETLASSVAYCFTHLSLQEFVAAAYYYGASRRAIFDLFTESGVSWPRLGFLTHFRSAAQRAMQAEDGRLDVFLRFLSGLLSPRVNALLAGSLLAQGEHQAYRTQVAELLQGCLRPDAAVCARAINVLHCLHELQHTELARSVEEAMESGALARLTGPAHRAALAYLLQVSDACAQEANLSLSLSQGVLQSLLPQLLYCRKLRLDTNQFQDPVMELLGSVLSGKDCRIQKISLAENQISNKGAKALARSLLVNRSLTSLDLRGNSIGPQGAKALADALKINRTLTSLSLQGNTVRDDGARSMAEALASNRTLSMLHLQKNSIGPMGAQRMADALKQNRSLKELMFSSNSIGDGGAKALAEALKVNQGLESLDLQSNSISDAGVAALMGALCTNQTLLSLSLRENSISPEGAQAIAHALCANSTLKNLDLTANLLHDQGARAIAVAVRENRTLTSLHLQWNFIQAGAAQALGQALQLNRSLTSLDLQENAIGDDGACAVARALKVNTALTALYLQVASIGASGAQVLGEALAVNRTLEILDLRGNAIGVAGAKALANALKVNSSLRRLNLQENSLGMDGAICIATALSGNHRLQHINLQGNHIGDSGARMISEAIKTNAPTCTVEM
UniProt P10588: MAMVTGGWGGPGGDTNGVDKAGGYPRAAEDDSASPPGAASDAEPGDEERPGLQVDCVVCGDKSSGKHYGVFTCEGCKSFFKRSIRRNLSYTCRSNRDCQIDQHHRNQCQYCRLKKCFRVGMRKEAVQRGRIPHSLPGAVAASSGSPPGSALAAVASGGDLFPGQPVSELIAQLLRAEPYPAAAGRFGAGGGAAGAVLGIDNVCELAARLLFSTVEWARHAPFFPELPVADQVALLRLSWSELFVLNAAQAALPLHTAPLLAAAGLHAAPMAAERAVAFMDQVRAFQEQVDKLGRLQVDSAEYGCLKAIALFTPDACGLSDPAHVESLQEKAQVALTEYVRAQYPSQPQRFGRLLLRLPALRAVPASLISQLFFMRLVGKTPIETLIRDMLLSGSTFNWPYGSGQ
UniProt O00567: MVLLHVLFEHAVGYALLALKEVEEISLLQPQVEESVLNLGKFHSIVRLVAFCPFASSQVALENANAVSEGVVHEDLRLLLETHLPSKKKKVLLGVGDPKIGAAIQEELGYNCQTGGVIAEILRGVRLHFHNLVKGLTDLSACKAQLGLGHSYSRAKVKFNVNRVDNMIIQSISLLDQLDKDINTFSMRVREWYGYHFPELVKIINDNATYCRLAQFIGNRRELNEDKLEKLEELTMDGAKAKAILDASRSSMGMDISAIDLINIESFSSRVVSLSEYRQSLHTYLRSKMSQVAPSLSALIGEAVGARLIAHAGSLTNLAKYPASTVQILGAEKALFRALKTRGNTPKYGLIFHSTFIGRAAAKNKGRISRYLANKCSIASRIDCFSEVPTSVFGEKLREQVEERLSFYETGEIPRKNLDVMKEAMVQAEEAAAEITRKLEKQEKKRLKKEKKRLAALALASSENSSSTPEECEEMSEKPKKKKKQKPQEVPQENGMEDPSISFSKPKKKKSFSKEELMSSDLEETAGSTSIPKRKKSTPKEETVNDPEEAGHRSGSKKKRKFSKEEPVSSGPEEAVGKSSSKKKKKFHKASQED

Tests used:
Assay in all cases: log2 fold change, soluble protein after heating vs DMSO (PISA); higher = thermal stabilisation; K562 cells, 10 uM, 30 min; active = over 0.2 and 3.5 SD of the protein, either way, in both replicates (recomputed)
IRAK-1-4 Inhibitor I = compound: C1COCCN1CCN2C3=CC=CC=C3N=C2NC(=O)C4=CC(=CC=C4)[N+](=O)[O-] [IRAK-1-4 Inhibitor I]
Method in brief: (§1)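 K562 cells at 2×10^6 cells/mL were treated with 10 μM compound for 30 min. Aliquots were heated for 3 min across 48°C-58°C, pooled, and extracted in PBS with 0.5% NP-40 at 4°C; soluble protein was the supernatant after 21,000xg for 90 min. Soluble protein was quantified by TMTpro 16plex LC-MS/MS with channel sums equalised, and reported as log2 fold change in thermal stability against DMSO controls, with values from duplicates.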

ibrutinib = compound: C=CC(=O)N1CCC[C@@H](n2nc(-c3ccc(Oc4ccccc4)cc3)c3c(N)ncnc32)C1 [ibrutinib]
Method in brief: as §1

[1] = compound: CC(=O)c1cnc2ccc(-c3cc(Cl)c(O)c(Cl)c3)nc2c1N[C@H]1CC[C@H](CN(C)C)CC1
Method in brief: as §1

ralimetinib = compound: CC(C)(C)Cn1c(N)nc2ccc(-c3[nH]c(C(C)(C)C)nc3-c3ccc(F)cc3)nc21 [ralimetinib]
Method in brief: as §1

[2] = compound: CC(C)(O)CC(=O)NCCn1ccc2ncnc(Nc3ccc(Oc4cccc(C(F)(F)F)c4)c(Cl)c3)c21
Method in brief: as §1

[3] = compound: CC(C)C1=C2N=C(C=C(N2N=C1)NCC3=CC=CC=C3)NCCCCCCN
Method in brief: as §1

[4] = compound: CC(C)C[C@@H](C=O)NC(=O)[C@H](CC(C)C)NC(=O)[C@H](CC(C)C)NC(=O)OCc1ccccc1
Method in brief: as §1

pinometostat = compound: CC(C)N(C[C@H]1O[C@@H](n2cnc3c(N)ncnc32)[C@H](O)[C@@H]1O)[C@H]1C[C@@H](CCc2nc3cc(C(C)(C)C)ccc3[nH]2)C1 [pinometostat]
Method in brief: as §1

[5] = compound: CC1=C(C(CC(=O)N1)C2=CC=C(C=C2)C(F)(F)F)C(=O)NC3=C(C=C4C(=C3)C=NN4)F
Method in brief: as §1

[6] = compound: CC1=C(C2=C(C=C1)C(=O)C3=CC=CC=C3N2CCCN)C
Method in brief: as §1

[7] = compound: CC1=C(C=C(C=C1)NC(=O)C2=CC(=CC=C2)C(C)(C)C#N)NC3=CC4=C(C=C3)N=CN(C4=O)C
Method in brief: as §1

[8] = compound: CC1=C(C=C(C=C1)NC(=O)C2=CC(=CC=C2)N(C)C)NC(=O)C3=CC=C(C=C3)O
Method in brief: as §1

[9] = compound: CC1=CC=C(C=C1)SC2=C3C=C(SC3=CN=C2)C(=O)N
Method in brief: as §1

[10] = compound: CC1=NC(=CC=C1)C2=C(N=C(N2)C(C)(C)C)C3=CC4=NC=CN=C4C=C3
Method in brief: as §1

Nexturastat A = compound: CCCCN(Cc1ccc(C(=O)NO)cc1)C(=O)Nc1ccccc1 [Nexturastat A]
Method in brief: as §1

vemurafenib = compound: CCCS(=O)(=O)Nc1ccc(F)c(C(=O)c2c[nH]c3ncc(-c4ccc(Cl)cc4)cc23)c1F [vemurafenib]
Method in brief: as §1

[11] = compound: CCCS(=O)(=O)Nc1ccc(F)c(C(=O)c2c[nH]c3ncc(Cl)cc23)c1F
Method in brief: as §1

[12] = compound: CCCc1cc(C)[nH]c(=O)c1CNC(=O)c1cc(-c2ccnc(N3CCN(C)CC3)c2)cc2c1cnn2C(C)C
Method in brief: as §1

givinostat = compound: CCN(CC)Cc1ccc2cc(COC(=O)Nc3ccc(C(=O)NO)cc3)ccc2c1 [givinostat]
Method in brief: as §1

barasertib = compound: CCN(CCCOc1ccc2c(Nc3cc(CC(=O)Nc4cccc(F)c4)[nH]n3)ncnc2c1)CCOP(=O)(O)O [barasertib]
Method in brief: as §1

| Target | log2 fold change (IRAK-1-4 Inhibitor I) | log2 fold change (ibrutinib) | log2 fold change [1] | log2 fold change (ralimetinib) | log2 fold change [2] | log2 fold change [3] | log2 fold change [4] | log2 fold change (pinometostat) | log2 fold change [5] | log2 fold change [6] | log2 fold change [7] | log2 fold change [8] | log2 fold change [9] | log2 fold change [10] | log2 fold change (Nexturastat A) | log2 fold change (vemurafenib) | log2 fold change [11] | log2 fold change [12] | log2 fold change (givinostat) | log2 fold change (barasertib) |
| --- | --- | --- | --- | --- | --- | --- | --- | --- | --- | --- | --- | --- | --- | --- | --- | --- | --- | --- | --- | --- |
| NOMO2 (UniProt Q5JPE7) | inactive: -0.011 | inactive: 0.011 | inactive: 0.007 | inactive: 0.027 | inactive: -0.019 | inactive: -0.1 | inactive: -0.008 | inactive: 0.009 | inactive: -0.001 | inactive: 0.033 | inactive: 0.019 | inactive: -0.014 | inactive: 0.006 | inactive: 0.002 | inactive: -0.015 | inactive: 0.003 | inactive: 0.014 | inactive: 0.025 | inactive: 0.025 | inactive: -0.004 |
| NF1 (UniProt P21359) | inactive: 0.005 | inactive: -0.147 | inactive: -0.163 | inactive: 0.066 | inactive: 0.091 | inactive: 0.039 | inactive: -0.008 | inactive: 0.066 | inactive: 0.148 | inactive: 0.126 | inactive: -0.152 | inactive: -0.046 | inactive: -0.216 | inactive: -0.132 | inactive: 0.116 | inactive: -0.088 | inactive: -0.247 | inactive: 0.013 | inactive: 0.039 | inactive: 0.084 |
| NPM1 (UniProt P06748) | inactive: -0.125 | inactive: 0.027 | inactive: 0.073 | inactive: 0.115 | inactive: 0.171 | inactive: 0.023 | inactive: 0.028 | inactive: 0.171 | inactive: -0.038 | inactive: -0.562 | inactive: 0.055 | inactive: -0.011 | inactive: -0.099 | inactive: -0.066 | inactive: 0.17 | inactive: -0.058 | inactive: -0.042 | inactive: 0.145 | inactive: 0.077 | inactive: -0.156 |
| NFS1 (UniProt Q9Y697) | inactive: 0.027 | inactive: -0.012 | inactive: -0.035 | inactive: -0.033 | inactive: -0.052 | inactive: 0.041 | inactive: -0.024 | inactive: -0.057 | inactive: -0.05 | inactive: 0.014 | inactive: -0.016 | inactive: -0.024 | inactive: 0.009 | inactive: 0.022 | inactive: -0.053 | inactive: 0.027 | inactive: 0.031 | inactive: -0.032 | inactive: -0.005 | inactive: 0.014 |
| NME6 (UniProt O75414) | inactive: 0.001 | inactive: 0.022 | inactive: -0.035 | inactive: -0.087 | inactive: -0.017 | inactive: 0.026 | inactive: 0.033 | inactive: -0.06 | inactive: 0.012 | inactive: 0.086 | inactive: 0.04 | inactive: -0.07 | inactive: 0.023 | inactive: 0.039 | inactive: 0.053 | inactive: 0.116 | inactive: -0.057 | inactive: -0.068 | inactive: -0.014 | inactive: 0.015 |
| NIF3L1 (UniProt Q9GZT8) | inactive: 0.054 | inactive: 0.111 | inactive: -0.027 | inactive: -0.047 | inactive: -0.016 | inactive: 0.081 | inactive: -0.004 | inactive: -0.012 | inactive: 0.017 | inactive: 0.001 | inactive: -0.066 | inactive: 0.003 | inactive: -0.029 | inactive: -0.015 | inactive: 0.031 | inactive: 0.003 | inactive: -0.044 | inactive: -0.019 | inactive: -0.02 | inactive: 0.018 |
| NRBF2 (UniProt Q96F24) | inactive: 0.007 | inactive: -0.009 | inactive: 0.002 | inactive: -0.04 | inactive: 0.004 | inactive: 0.016 | inactive: 0.005 | inactive: -0.01 | inactive: -0.001 | inactive: 0.022 | inactive: -0.017 | inactive: -0.014 | inactive: 0.032 | inactive: 0.016 | inactive: -0.046 | inactive: -0.024 | inactive: 0.042 | inactive: -0.046 | inactive: -0.009 | inactive: 0.071 |
| NSDHL (UniProt Q15738) | inactive: 0.004 | inactive: 0.193 | inactive: -0.049 | inactive: -0.01 | inactive: 0.173 | inactive: -0.084 | inactive: -0.024 | inactive: -0.078 |  | inactive: 0.056 | inactive: 0.073 | inactive: -0.005 | inactive: 0.029 | inactive: -0.001 | inactive: -0.111 | inactive: 0.07 | inactive: -0.027 | inactive: -0.031 | inactive: -0.013 | inactive: -0.004 |
| NME7 (UniProt Q9Y5B8) | inactive: 0.056 | inactive: -0.054 | inactive: -0.038 | inactive: 0.095 | inactive: -0.116 | inactive: -0.066 | inactive: 0.059 | inactive: 0.065 |  | inactive: -0.086 | inactive: -0.008 | inactive: -0.089 | inactive: -0.021 | inactive: 0.059 | inactive: 0.024 | inactive: -0.037 | inactive: 0.081 | inactive: -0.06 | inactive: -0.202 | inactive: 0.042 |
| NRF1 isoform 4 (UniProt Q16656) | inactive: -0.014 | inactive: -0.007 | inactive: -0.059 | inactive: 0.024 | inactive: 0.082 | inactive: -0.125 | inactive: -0.025 | inactive: -0.004 |  | active: -0.419 | inactive: 0.002 | inactive: 0.03 | inactive: -0.015 | inactive: 0.051 | inactive: -0.316 | inactive: 0.004 | inactive: 0.081 | inactive: -0.007 | inactive: 0.042 | inactive: 0.034 |
| NOLC1 isoform 2 (UniProt Q14978) | inactive: -0.057 | inactive: -0.089 | active: -0.305 | inactive: 0.041 | inactive: 0.021 | inactive: -0.015 | inactive: -0.086 | inactive: -0.011 |  | active: -1.4 | inactive: -0.074 | inactive: -0.004 | inactive: -0.082 | inactive: -0.051 | inactive: 0.018 | inactive: -0.088 | inactive: -0.032 | inactive: 0.104 | inactive: 0.143 | inactive: -0.033 |
| NR2C2 isoform 2 (UniProt P49116) | inactive: 0.004 | inactive: 0.022 | inactive: -0.062 | inactive: -0.064 | inactive: -0.048 | inactive: -0.004 | inactive: 0.058 | inactive: 0.014 |  | inactive: -0.215 | inactive: -0.017 | inactive: 0.029 | inactive: 0.114 | inactive: -0.034 | active: -0.23 | inactive: -0.023 | inactive: 0.03 | inactive: 0.04 | inactive: -0.073 | inactive: 0.028 |
| NOL7 (UniProt Q9UMY1) | inactive: -0.139 | inactive: 0.036 | inactive: 0.158 | inactive: 0.041 | inactive: 0.043 | inactive: 0.016 | inactive: 0.141 | inactive: 0.242 |  | inactive: -0.485 | inactive: -0.06 | inactive: -0.055 | inactive: -0.048 | inactive: -0.193 | inactive: 0.214 | inactive: -0.14 | inactive: -0.121 | inactive: 0.088 | inactive: 0.031 | inactive: -0.092 |
| NLRC3 isoform 2 (UniProt Q7RTR2) | inactive: 0.037 | inactive: -0.033 | inactive: -0.089 | inactive: -0.257 | inactive: 0.039 | inactive: -0.091 | inactive: 0.115 | inactive: 0.04 | inactive: 0.026 |  | inactive: -0.334 | inactive: 0.021 | inactive: -0.197 | inactive: -0.33 | inactive: -0.066 | inactive: -0.287 | inactive: -0.436 | inactive: -0.384 | inactive: -0.065 | inactive: 0.092 |
| NR2F6 (UniProt P10588) | inactive: -0.067 | inactive: 0.004 | inactive: 0.031 | inactive: -0.006 | inactive: 0.013 | inactive: 0.08 | inactive: -0.122 | inactive: 0 | inactive: 0.053 | inactive: -0.081 | inactive: 0.044 | inactive: 0.039 | inactive: 0.022 | inactive: -0.033 | inactive: -0.103 | inactive: -0.004 | inactive: 0.071 | inactive: 0.054 | inactive: -0.103 | inactive: -0.107 |
| NOP56 (UniProt O00567) | inactive: -0.03 | inactive: 0.025 | inactive: 0.015 | inactive: 0.082 | inactive: 0.108 | inactive: 0.202 | inactive: 0.234 | inactive: 0.198 |  | inactive: 0.187 | inactive: -0.024 | inactive: -0.001 | inactive: -0.149 | inactive: -0.136 | inactive: 0.127 | inactive: -0.018 | inactive: -0.065 | inactive: 0.003 | inactive: 0.096 | inactive: -0.076 |

Random excerpt: two entries already listed.

| Target | log2 fold change (IRAK-1-4 Inhibitor I) | log2 fold change (ibrutinib) | log2 fold change [1] | log2 fold change (ralimetinib) | log2 fold change [2] | log2 fold change [3] | log2 fold change [4] | log2 fold change (pinometostat) | log2 fold change [5] | log2 fold change [6] | log2 fold change [7] | log2 fold change [8] | log2 fold change [9] | log2 fold change [10] | log2 fold change (Nexturastat A) | log2 fold change (vemurafenib) | log2 fold change [11] | log2 fold change [12] | log2 fold change (givinostat) | log2 fold change (barasertib) |
| --- | --- | --- | --- | --- | --- | --- | --- | --- | --- | --- | --- | --- | --- | --- | --- | --- | --- | --- | --- | --- |
| NLRC3 isoform 2 (UniProt Q7RTR2) | inactive: 0.037 | inactive: -0.033 | inactive: -0.089 | inactive: -0.257 | inactive: 0.039 | inactive: -0.091 | inactive: 0.115 | inactive: 0.04 | inactive: 0.026 |  | inactive: -0.334 | inactive: 0.021 | inactive: -0.197 | inactive: -0.33 | inactive: -0.066 | inactive: -0.287 | inactive: -0.436 | inactive: -0.384 | inactive: -0.065 | inactive: 0.092 |
| NOLC1 isoform 2 (UniProt Q14978) | inactive: -0.057 | inactive: -0.089 | active: -0.305 | inactive: 0.041 | inactive: 0.021 | inactive: -0.015 | inactive: -0.086 | inactive: -0.011 |  | active: -1.4 | inactive: -0.074 | inactive: -0.004 | inactive: -0.082 | inactive: -0.051 | inactive: 0.018 | inactive: -0.088 | inactive: -0.032 | inactive: 0.104 | inactive: 0.143 | inactive: -0.033 |
